Experimental data: publication PMC8704586
These are yes or no findings as the source states them, for the method shown. Binding seen in cells or lysates may run through a third protein. Some entries that bind do so weakly or less than the wild type.

Molecular target: cellular prion protein (PrP^C), endogenous in N2a cells (mouse (endogenous in N2a)) (UniProt P04925)
Assay: pull-down

B1: calnexin, endogenous in N2a cells (protein, UniProt P35564 21-591)
chain: HDGHDDDAIDIEDDLDDVIEEVEDSKSKSDASTPPSPKVTYKAPVPTGEVYFADSFDRGSLSGWILSKAKKDDTDDEIAKYDGKWEVDEMKETKLPGDKGLVLMSRAKHHAISAKLNKPFLFDTKPLIVQYEVNFQNGIECGGAYVKLLSKTAELSLDQFHDKTPYTIMFGPDKCGEDYKLHFIFRHKNPKTGVYEEKHAKRPDADLKTYFTDKKTHLYTLILNPDNSFEILVDQSVVNSGNLLNDMTPPVNPSREIEDPEDRKPEDWDERPKIADPDAVKPDDWDEDAPSKIPDEEATKPEGWLDDEPEYIPDPDAEKPEDWDEDMDGEWEAPQIANPKCESAPGCGVWQRPMIDNPNYKGKWKPPMIDNPNYQGIWKPRKIPNPDFFEDLEPFKMTPFSAIGLELWSMTSDIFFDNFIISGDRRVVDDWANDGWGLKKAADGAAEPGVVLQMLEAAEERPWLWVVYILTVALPVFLVILFCCSGKKQSNAMEYKKTDAPQPDVKDEEGKEEEKNKRDEEEEEEKLEEKQKSDAEEDGVTGSQDEEDSKPKAEEDEILNRSPRNRKPRRE
In the case of B1, the binding is reported as “binds”.
